Results of single-concentration screens

Source: ChEMBL document CHEMBL3988442, “University of Dundee, Small-Polar-MMV Screening Library” (2021).

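Whole-parasite assay of Trypanosoma brucei over 72 hours; the read-out is not stated. Tested at 30 µM. Direction is inferred from retests: higher values go with stronger inhibition. Values scatter widely below zero; nearly all retest evidence comes from the higher of the two concentrations used. Size under these conditions: about 64,000 compounds, about 940 of them at 50% or above in at least one test.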

Values are the deposited “Percent Effect”, in %. The controls that fix the scale are not given in the record; negative values are as filed. Compounds were drawn at random from those tested, without regard to their results.

SMILES: Cc1ccc2c(c1)C(=O)NCC1(CCN(C(=O)c3csc(C)c3)CC1)O2
effect: 20.8%

SMILES: [H][C@@]12COC[C@]1(COc1nccc(C)n1)CN(C(=O)c1ccnn1C)C2
effect: -31.05%

SMILES: CCN1CCN(CCCNC(=O)c2cc3ccc(C)cc3nc2C)CC1
effect: -1.093%

SMILES: Cc1cc(C2CCCN(C(=O)COc3cccc(F)c3)C2)n[nH]1 (stereo not shown)
effect: 9.306%

SMILES: COCc1cccc(C(=O)N2CCCCC2c2nccs2)c1 (stereo not shown)
effect: -1.085%

SMILES: Cc1cc(C(F)(F)F)nc(C2(C)CCCN2CC(N)=O)n1 (stereo not shown)
effect: -10.49%

SMILES: Cc1cc(NCC(=O)N(C)C(C)c2cccs2)c(C(N)=O)cc1F (stereo not shown)
effect: -4.637%

SMILES: CN(Cc1cc2n(n1)CCCNC2)Cc1ccno1
effect: -20.42%

SMILES: CN(C)CC1CN(Cc2ccc(F)cc2)Cc2nccn2C1.O=C(O)C(F)(F)F.O=C(O)C(F)(F)F (stereo not shown)
effect: 44.03%

SMILES: Cc1ccccc1CNc1ccc(S(N)(=O)=O)c(C(F)(F)F)c1
effect: 44.4%

SMILES: c1cncc(OCc2nc(C3CC3)nn2-c2ccc3c(c2)OCCO3)c1
effect: -44.48%

SMILES: CCCN1CCC(NC(=O)Nc2ccc(OC)c(OC)c2)CC1
effect: -0.7678%

SMILES: Cc1ccc(C(=O)NC2CCN(Cc3noc(CC(C)C)n3)CC2)s1
effect: -20.37%

SMILES: CN(C)CCN(C)C(=O)c1cnc2c(c1)nc(-c1ccccc1Cl)n2C
effect: 7.003%

SMILES: CN(Cc1nc(C(F)(F)F)cs1)C(=O)CCc1cccnc1
effect: -46.61%

SMILES: O=C(NCCN1CCCCCC1=O)NCc1ccc(Cl)s1
effect: -36.17%

SMILES: COc1cc(C)ccc1OCC(=O)NS(=O)(=O)c1cccnc1
effect: 3.199%

SMILES: c1ccc2nc(NCC3(N4CCOCC4)CCSC3)cnc2c1 (stereo not shown)
effect: -17.58%

SMILES: CS(=O)(=O)N1CCOCC2(CN(Cc3ccccn3)CCO2)C1.O=C(O)C(F)(F)F.O=C(O)C(F)(F)F (stereo not shown)
effect: -10.9%

SMILES: O=C(O)C(F)(F)F.O=C(O)C(F)(F)F.OCCN1CC2(CCN(c3ccccc3)C2)C1
effect: 12.84%

SMILES: O=C(NCC1CC1)c1cc(Br)cnc1N1CCCCC1
effect: 18.52%

SMILES: [H][C@]12CC[C@]([H])(CN(Cc3ccccc3)C1)N(C(=O)CNC(N)=O)C2
effect: -68.73%

SMILES: Cc1nc(CNC(=O)CC2C(=O)NCCN2CCC(C)C)n[nH]1 (stereo not shown)
effect: -16.02%

SMILES: CO[C@@H]1CCN(C(=O)c2cnoc2C)[C@H]1Cc1ccccc1
effect: -22%

SMILES: [H][C@]12CN(Cc3nc(C)c[nH]3)CC[C@@]1(O)CCN(C(=O)C1CCC1)C2
effect: -57.72%

SMILES: CC(C)(C)n1ncc2c1CCCC2NCc1cccc(C(N)=O)c1 (stereo not shown)
effect: -7.217%

SMILES: C=C(C)COc1cccc(CNC(CC(C)C)c2ncnn2C)c1 (stereo not shown)
effect: -43.98%

SMILES: CC(C(=O)N1CCCCCC1)N1CCN(Cc2nccn2C)CC1 (stereo not shown)
effect: 6.698%

SMILES: COc1ccccc1OCc1cc(C(=O)N2C[C@H](O)[C@@H](N(C)C)C2)n[nH]1
effect: 42.41%

SMILES: O=C(CN1CCC2(CCCCC2)C1)NCC(F)(F)F
effect: 100.3%

SMILES: O=C(O)C(F)(F)F.O=C(O)C(F)(F)F.[H][C@@]12CCN(C3CCOCC3)C[C@]1([H])OCCN(Cc1cccnc1)C2=O
effect: -18.41%

SMILES: Cc1nc(-c2nnc[nH]2)sc1C(=O)N1CCCC1c1cccs1 (stereo not shown)
effect: -0.7768%

SMILES: CN(Cc1nnc(C2CC2)n1C)C1CCN(Cc2ccc(F)cc2)C1 (stereo not shown)
effect: -4.246%

SMILES: O=C(C1CCCC1)N1CCCC(c2nc(O)cc(-c3ccncc3)n2)C1 (stereo not shown)
effect: -9.067%

SMILES: Cn1cc(C(=O)N2CCCC(n3cccn3)C2)c2ccccc21 (stereo not shown)
effect: -16%

SMILES: [H][C@@]12CCCN1CCCN(c1cc(C)nc3c(C)c(C)nn13)C2
effect: -30.15%

SMILES: CNc1cccc(CC2COCCN(C(=O)c3cncs3)C2)n1 (stereo not shown)
effect: -0.2703%

SMILES: COc1cc(CNC(=O)c2c(C)noc2C)ccn1
effect: 2.615%

SMILES: COc1cnc(N2CCCN(Cc3ccc(F)cc3)CC2)nc1
effect: -32.42%

SMILES: CC(NC(=O)CCCc1ccc(Cl)cc1)c1n[nH]c(=O)[nH]1 (stereo not shown)
effect: 9.885%

SMILES: Cn1c(CS(=O)(=O)c2ccc(Cl)cc2)cc(=O)n(C)c1=O
effect: -10.09%

SMILES: CN(C)c1ccc(NC(=O)NCc2ccccn2)cn1
effect: -1.635%

SMILES: CCC(CC)C(=O)NC1CCCc2nc(N3CCOCC3)ncc21 (stereo not shown)
effect: -0.03271%

SMILES: CN(C)CC1(O)CCN(C(=O)Cc2ccc3ccccc3c2)C1 (stereo not shown)
effect: -4.761%

SMILES: CCC[C@H]1CN(C2CCOCC2)C[C@@H]1NC(=O)CCc1cnccn1
effect: 10.34%

SMILES: CCn1ccnc1CN1CCN(CCCS(C)(=O)=O)CC1C (stereo not shown)
effect: -18.02%